According to ChEMBL document CHEMBL2412957, “Synthesis and SAR of 4-aminocyclopentapyrrolidines as orally active N-type calcium channel inhibitors for inflammatory and neuropathic pain” (Bioorg Med Chem Lett, 2013):
In brackets after ≈: the same amount, converted by molar mass.

Test: Solubility of the compound by chemiluminescent nitrogen detection method

`CC(C)N[C@@H](CC(C)(C)C)C(=O)N[C@H]1CC[C@@H]2CN(S(=O)(=O)c3ccc(C(F)(F)F)cc3)C[C@@H]21` gave a solubility of 21 µM (≈ 10.6 µg/mL).
